From patent US20110258738A1
No constants are given. Whether binding was seen depends on the method and setting. Some entries that bind do so weakly or less than the wild type.

Chains of the proteins cited; added tags and fusions are not shown. Lines headed by an entry give the natural chain unless they say otherwise; changes in a name come on top.
UniProt Q9FR53: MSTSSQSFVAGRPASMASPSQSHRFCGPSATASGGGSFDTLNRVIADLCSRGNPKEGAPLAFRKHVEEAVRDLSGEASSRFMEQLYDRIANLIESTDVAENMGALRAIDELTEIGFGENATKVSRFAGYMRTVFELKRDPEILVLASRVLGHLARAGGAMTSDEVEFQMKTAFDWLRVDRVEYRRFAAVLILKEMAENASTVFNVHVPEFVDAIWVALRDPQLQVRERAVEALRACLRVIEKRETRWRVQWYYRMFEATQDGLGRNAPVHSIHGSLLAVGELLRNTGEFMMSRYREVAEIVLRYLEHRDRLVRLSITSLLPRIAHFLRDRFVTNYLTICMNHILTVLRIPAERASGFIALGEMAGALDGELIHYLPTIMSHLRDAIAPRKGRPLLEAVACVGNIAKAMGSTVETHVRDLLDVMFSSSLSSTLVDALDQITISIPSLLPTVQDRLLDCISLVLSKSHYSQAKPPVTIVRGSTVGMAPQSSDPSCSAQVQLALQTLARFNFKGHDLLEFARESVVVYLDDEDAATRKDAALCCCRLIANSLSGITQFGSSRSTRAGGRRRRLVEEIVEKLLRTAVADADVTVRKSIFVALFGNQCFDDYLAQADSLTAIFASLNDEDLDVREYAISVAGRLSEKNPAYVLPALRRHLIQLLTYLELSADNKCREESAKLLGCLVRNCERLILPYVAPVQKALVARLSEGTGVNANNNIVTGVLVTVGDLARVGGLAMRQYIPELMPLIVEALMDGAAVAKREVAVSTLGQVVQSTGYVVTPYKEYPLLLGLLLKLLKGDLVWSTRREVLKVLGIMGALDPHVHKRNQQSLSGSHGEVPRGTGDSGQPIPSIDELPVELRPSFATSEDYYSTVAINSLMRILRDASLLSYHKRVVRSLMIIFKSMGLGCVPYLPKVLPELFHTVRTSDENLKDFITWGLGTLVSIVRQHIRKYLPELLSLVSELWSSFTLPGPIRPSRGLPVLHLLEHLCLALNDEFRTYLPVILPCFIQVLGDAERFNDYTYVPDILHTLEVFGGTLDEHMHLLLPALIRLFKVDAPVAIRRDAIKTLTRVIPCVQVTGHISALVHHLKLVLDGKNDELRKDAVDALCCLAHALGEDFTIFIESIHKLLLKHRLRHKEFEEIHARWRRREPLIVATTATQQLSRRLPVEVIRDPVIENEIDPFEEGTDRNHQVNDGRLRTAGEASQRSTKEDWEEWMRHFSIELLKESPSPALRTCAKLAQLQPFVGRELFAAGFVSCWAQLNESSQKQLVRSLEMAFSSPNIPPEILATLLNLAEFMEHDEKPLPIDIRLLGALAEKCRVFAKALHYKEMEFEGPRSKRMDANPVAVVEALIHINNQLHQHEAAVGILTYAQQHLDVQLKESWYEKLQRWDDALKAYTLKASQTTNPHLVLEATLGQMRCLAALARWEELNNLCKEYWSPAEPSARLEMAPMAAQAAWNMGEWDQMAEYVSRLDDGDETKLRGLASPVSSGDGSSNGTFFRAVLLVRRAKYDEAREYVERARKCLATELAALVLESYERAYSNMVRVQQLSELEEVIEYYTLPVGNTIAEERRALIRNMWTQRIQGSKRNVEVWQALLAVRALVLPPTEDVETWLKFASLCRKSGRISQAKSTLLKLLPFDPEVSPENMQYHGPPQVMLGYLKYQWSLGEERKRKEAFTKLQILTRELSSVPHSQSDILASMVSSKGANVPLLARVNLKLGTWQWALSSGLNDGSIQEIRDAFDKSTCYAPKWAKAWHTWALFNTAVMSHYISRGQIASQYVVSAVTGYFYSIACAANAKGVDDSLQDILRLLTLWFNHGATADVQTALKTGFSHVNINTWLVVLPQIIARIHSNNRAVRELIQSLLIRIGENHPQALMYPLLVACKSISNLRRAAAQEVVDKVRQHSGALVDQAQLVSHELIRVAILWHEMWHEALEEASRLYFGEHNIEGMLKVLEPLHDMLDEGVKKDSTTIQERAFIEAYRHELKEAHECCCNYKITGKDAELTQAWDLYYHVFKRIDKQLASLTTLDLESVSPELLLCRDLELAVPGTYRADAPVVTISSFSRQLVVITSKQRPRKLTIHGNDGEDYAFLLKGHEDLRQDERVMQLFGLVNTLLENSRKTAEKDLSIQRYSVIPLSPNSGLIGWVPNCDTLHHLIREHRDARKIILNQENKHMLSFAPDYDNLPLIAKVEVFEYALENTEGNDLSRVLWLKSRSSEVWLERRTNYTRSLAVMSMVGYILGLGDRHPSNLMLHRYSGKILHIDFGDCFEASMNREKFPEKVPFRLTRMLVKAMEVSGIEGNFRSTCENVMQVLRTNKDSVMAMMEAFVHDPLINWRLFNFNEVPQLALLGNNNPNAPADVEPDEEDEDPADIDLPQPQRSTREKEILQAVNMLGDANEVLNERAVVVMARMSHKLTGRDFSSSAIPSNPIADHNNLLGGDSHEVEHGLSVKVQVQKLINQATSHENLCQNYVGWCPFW
UniProt Q9M2Z2: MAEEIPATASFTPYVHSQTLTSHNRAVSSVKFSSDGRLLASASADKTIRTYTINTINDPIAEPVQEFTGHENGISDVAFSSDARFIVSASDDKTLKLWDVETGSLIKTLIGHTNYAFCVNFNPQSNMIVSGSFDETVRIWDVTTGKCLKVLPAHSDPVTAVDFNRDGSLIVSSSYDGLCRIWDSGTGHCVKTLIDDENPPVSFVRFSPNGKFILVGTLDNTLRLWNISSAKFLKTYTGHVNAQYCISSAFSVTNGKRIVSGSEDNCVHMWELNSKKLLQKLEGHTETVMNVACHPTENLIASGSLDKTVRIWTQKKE

B1: AtTIP15 (protein)
chain: MTKRSKGANEDKLIETKSKNVSGKSQKQKKPVEAESLKEEDLLQASGTDSDYDGDSLPGSLNSDDFDSDFSDSEDDGTHEGTEDGDVEFSDDDDVLEHDGSIDNEDDDGSEHVGSDNNEEHGSDEDSERGEAVEESDSSEDEVPSRNTVGNVPLKWYEDEKHIGYDLTGKKITKKEKQDKLDSFLATIDDSKTWRKIYDEYNDEDVELTKEESKIVQRILKGEAPHADFDPYAPYVEWFKHDDAIHPLSSAPEPKRRFIPSKWEAKKVVKIVRAIRKGWIKFDKPEEEPNVYLLWGDDSTSDQKSKHLTYIPPPKLKLPGHDESYNPSLEYIPTEEEKASYELMFEEDRPKFIPTRFTSLRSIPAYENALKESFERCLDLYLCPRVRKKRINIDPESLKPKLPSRKDLRPYPNSCYLEYKGHTGAVTSISTDSSGEWIASGSTDGSVRMWEVETGRCLKVWQFDEAIMCVAWNPLSRLPVLAVAMGRDLFFLNTELGTDEEQEITKERLHSGNIPEPDASVAAIVTWLPDELYGGIKIRHFKSISSIDWHRKGDYLSTVMASGETRGVVLHQLSKQKTQRLPFKIRGLPVCTLFHPSLSYFFVATRKDVRVYNLLKPGEATKKLETGLREISSMAIHPGGDNLIVGSKEGKMCWFDMDLSSKPYKTLKNHPKDITNVAVHRSYPLFASCSEDSTAYVFHGMVYNDLNQNPLIVPLEILRGHSSKGGVLDCKFHPRQPWLFTAGADSIIKLYCH
B2: AtTIP16 (enzyme)
chain: MVGSLESDQTLSMATLIEKLDILSDDFDPTAVVTEPLPPPVTNGIGADKGGGGGEREMVLGRNIHTTSLAVTEPEVNDEFTGDKEAYMASVLARYRKTLVERTKNHLGYPYNLDFDYGALGQLQHFSINNLGDPFIESNYGVHSRPFEVGVLDWFARLWEIERDDYWGYITNCGTEGNLHGILVGREMFPDGILYASRESHYSVFKAARMYRMECEKVDTLMSGEIDCDDLRKKLLANKDKPAILNVNIGTTVKGAVDDLDLVIKTLEECGFSHDRFYIHCDGALFGLMMPFVKRAPKVTFNKPIGSVSVSGHKFVGCPMPCGVQITRMEHIKVLSSNVEYLASRDATIMGSRNGHAPLFLWYTLNRKGYKGFQKEVQKCLRNAHYLKDRLREAGISAMLNELSSTVVFERPKDEEFVRRWQLACQGDIAHVVVMPSVTIEKLDNFLKDLVKHRLIWYEDGSQPPCLASEVGTNNCICPAHK
B3: AtTIP8 (protein)
chain: MSTREENVYMAKLAEQAERYEEMVEFMEKVAKTVDVEELSVEERNLLSVAYKNVIGARRASWRIISSIEQKEESKGNEDHVAIIKDYRGKIESELSKICDGILNVLEAHLIPSASPAESKVFYLKMKGDYHRYLAEFKAGAERKEAAESTLVAYKSASDIATAELAPTHPIRLGLALNFSVFYYEILNSPDRACSLAKQAFDDAIAELDTLGEESYKDSTLIMQLLRDNLTLWTSDMTDEAGDEIKEASKPDGAE
B4: AtTIP28 (protein)
chain: ADEINEIREEQEQLAPFDPSKKKKKKKVVIQEPVEDLAESSQTEKSDSLPVNDGLESSFTGMKKKKKKPTESSLLNNESVDAGEDLDEIANDEQEGEEGIVLQQRYPWEGSERDYIYDELLGRVFNILRENNPELAGDRRRTVMRPPQVLREGTKKTVFVNFMDLCKTMHRQPDHVMQYLLAELGTSGSLDGQQRLVVKGRFAPKNFEGILRRYITDYVICLGCKSPDTILSKENRLFFLRCEKCGSQRSVAPIKTGFVARVSRRKT
B5: AtTIP9 (protein)
chain: MGGLAMEEMPLSVLFEQARKIHLAASESGVDQDVVKKGCEMFQKCEDMIGKLALFSSNETKEDISTNNLKYLLVPYYLAELTEKIIQEDRIQIVKASYAKLKEFFSFCEAMELVPDEELEASSRGGSGAPADRRALKIARFKRQKAAEAKLLEIKERKERRGRSTKASALSTPVESGEDDIPDDDSEEEREAWLSSINLAICKAIDLLEMLKREEEMLSAIKERQLKDGEGGFSRDALDDRTKKAETWHRDAAARIQYSKPAQPITCATFAQDVLEGRASVSQGHEHKNQPLIFGPASIVGGPLSTERERMIAQVFQPSHRMPTMCIEDAGLTEMNIMNDWQEQTKKAIEEATTSWYNDKPLRRKEEDEEDDDEDEEAVMKARAFDDWKDDNPRGAGNKKLTPCG
B6: AtTIP2 (enzyme)
chain: MVSSQCSVANKNQTGKPFQKHLSLSISPPKSVLGDNLELQFSDVFGPMPEANSEEACDVAYDEPAVVYSRSHSLVGPSLVVSHSLKMNKLTLRETEDSVDLVECVEGESIKENDEFSGNDDTDSEKSPEEVSGVVGIEDFEVLKVVGQGAFGKVYQVRKKDTSEIYAMKVMRKDKIVEKNHAEYMKAERDILTKIDHPFIVQLKYSFQTKYRLYLVLDFINGGHLFFQLYHQGLFREDLARVYTAEIVSAVSHLHEKGIMHRDLKPENILMDVDGHVMLTDFGLAKEFEENTRSNSMCGTTEYMAPEIVRGKGHDKAADWWSVGILLYEMLTGKPPFLGSKGKIQQKIVKDKIKLPQFLSNEAHALLKGLLQKEPERRLGSGPSGAEEIKKHKWFKAINWKKLEAREVQPSFKPAVSGRQCIANFDKCWTDMSVLDSPASSPNSDAKANPFTNFTYVRPPHSFLHRTTSNL
B7: AtTIP3 (protein)
chain: METVVDKDVLKSSGAELLPDGRRGLRIHDWEIETLRGTILTSLAVEEWEKKLKTSHLPEMVFGENALVLKHLGSNTKIHFNAFDALAGWKQEGLPPVEVPAAAQWKFRSKPSQQVILDYDYTFTTPYCGSEVVEKDKETVEAKANPKGEATLQWENCEDQIDLAALSLKEPILFYDEVVLYEDELADNGVSLLTVKVRVMPSSWFLLLRFWLRVDGVLMRLRETRMHYRFGEDEAPTVLRENCWREATFQSLSAKGYPVDLAVWSDPSSISQRLPVIKHTTQKLKIPSKV
B8: AtTIP13 (protein)
chain: MALGDLMVSRFSQSSVSLVSNHRYDEDCVSSHDDGDSRRKDSEAKSSSSYGNGTTEGAATATSMAYLPQTIVLCELRHDASEASAPLGTSEIVLVPKWRLKERMKTGCVALVLCLNITVDPPDVIKISPCARIEAWIDPFSMAPPKALETIGKNLSTQYERWQPRARYKVQLDPTVDEVRKLCLTCRKYAKTERVLFHYNGHGVPKPTANGEIWVFNKSYTQYIPLPISELDSWLKTPSIYVFDCSAARMILNAFAELHDWGSSGSSGSSRDCILLAACDVHETLPQSVEFPADVFTSCLTTPIKMALKWFCRRSLLKEIIDESLIDRIPGRQNDRKTLLGELNWIFTAVTDTIAWNVLPHELFQRLFRQDLLVASLFRNFLLAERIMRSANCNPISHPMLPPTHQHHMWDAWDMAAEICLSQLPQLVLDPSTEFQPSPFFTEQLTAFEVWLDHGSEHKKPPEQLPIVLQVLLSQCHRFRALVLLGRFLDMGSWAVDLALSVGIFPYVLKLLQTTTNELRQILVFIWTKILALDKSCQIDLVKDGGHTYFIRFLDSSGAFPEQRAMAAFVLAVIVDGHRRGQEACLEANLIGVCLGHLEASRPSDPQPEPLFLQWLCLCLGKLWEDFMEAQIMGREANAFEKLAPLLSEPQPEVRAAAVFALGTLLDIGFDSNKSVVEDEFDDDEKIRAEDAIIKSLLDVVSDGSPLVRAEVAVALARFAFGHKQHLKLAAASYWKPQSSSLLTSLPSIAKFHDPGSATIVSLHMSPLTRASTDSQPVARESRISSSPLGSSGLMQGSPLSDDSSLHSDSGMMHDSVSNGAVHQPRLLDNAVYSQCVRAMFALAKDPSPRIASLGRRVLSIIGIEQVVAKPSKPTGRPGEAATTSHTPLAGLARSSSWFDMHAGNLPLSFRTPPVSPPRTNYLSGLRRVCSLEFRPHLLGSPDSGLADPLLGASGSERSLLPLSTIYGWSCGHFSKPLLGGADASQEIAAKREEKEKFALEHIAKCQHSSISKLNNNPIANWDTRFETGTKTALLHPFSPIVVAADENERIRVWNYEEATLLNGFDNHDFPDKGISKLCLINELDDSLLLVASCDGSVRIWKNYATKGKQKLVTGFSSIQGHKPGARDLNAVVDWQQQSGYLYASGETSTVTLWDLEKEQLVRSVPSESECGVTALSASQVHGGQLAAGFADGSLRLYDVRSPEPLVCATRPHQKVERVVGLSFQPGLDPAKVVSASQAGDIQFLDLRTTRDTYLTIDAHRGSLTALAVHRHAPIIASGSAKQLIKVFSLQGEQLGIIRYYPSFMAQKIGSVSCLTFHPYQVLLAAGAADSFVSIYTHDNSQAR
B9: AtTIP5 (protein)
chain: MASQTPNLECRMYEAKYPEVDMAVMIQVKNIADMGAYVSLLEYNNIEGMILFSELSRRRIRSVSSLIKVGRIEPVMVLRVDKEKGYIDLSKRRVSEEDIQTCEERYNKSKLVHSIMRHVAETLSIDLEDLYVNIGWPLYRRHGHAFEAFKILVTDPDSVLGPLTREIKEVGPDGQEVTKVVPAVTEEVKDALVKNIRRRMTPQPMKIRADIELKCFQFDGVVHIKEAMKNAEAAGNEDCPVKIKLVAPPLYVLTTQTLDKEQGIEILNKAIAACTETIETHKGKLVVKEGARAVSERDEKMLTEHMAKLRLDNEEMSGDEDSGDEEEDTGMGEVDLDAGAGIIE
B10: AtTIP6 (enzyme)
chain: MLAMEKEFDSKLVLQGNSSNGANVSRSKSFSFKAPQENFTSHDFEFGKIYGVGSYSKVVRAKKKETGTVYALKIMDKKFITKENKTAYVKLERIVLDQLEHPGIIKLYFTFQDTSSLYMALESCEGGELFDQITRKGRLSEDEARFYTAEVVDALEYIHSMGLIHRDIKPENLLLTSDGHIKIADFGSVKPMQDSQITVLPNAASDDKACTFVGTAAYVPPEVLNSSPATFGNDLWALGCTLYQMLSGTSPFKDASEWLIFQRIIARDIKFPNHFSEAARDLIDRLLDTEPSRRPGAGSEGYVALKRHPFFNGVDWKNLRSQTPPKLAPDPASQTASPERDDTHGSPWNLTHIGDSLATQNEGHSAPPTSSESSGSITRLASIDSFDSRWQQFLEPGESVLMISAVKKLQKITSKKVQLILTNKPKLIYVDPSKLVVKGNIIWSDNSNDLNVVVTSPSHFKICTPKKVLSFEDAKQRASVWKKAIETLQNR

Molecular target: AtTOR (target of rapamycin protein, Arabidopsis thaliana) (Arabidopsis thaliana) (UniProt Q9FR53)
Experiment: yeast two-hybrid

binding, binds:
AtTOR (target of rapamycin protein, Arabidopsis thaliana) (from UniProt Q9FR53 1-2481) (enzyme)
AtTIP7 (from UniProt Q9M2Z2 1-317)
B1
B2
B3
B4
B5
B6
B7
B8
B9
B10
